In one assay the target is T1, HA-NAT10 K520R (UniProt Q9H0A0).
T1 sequence: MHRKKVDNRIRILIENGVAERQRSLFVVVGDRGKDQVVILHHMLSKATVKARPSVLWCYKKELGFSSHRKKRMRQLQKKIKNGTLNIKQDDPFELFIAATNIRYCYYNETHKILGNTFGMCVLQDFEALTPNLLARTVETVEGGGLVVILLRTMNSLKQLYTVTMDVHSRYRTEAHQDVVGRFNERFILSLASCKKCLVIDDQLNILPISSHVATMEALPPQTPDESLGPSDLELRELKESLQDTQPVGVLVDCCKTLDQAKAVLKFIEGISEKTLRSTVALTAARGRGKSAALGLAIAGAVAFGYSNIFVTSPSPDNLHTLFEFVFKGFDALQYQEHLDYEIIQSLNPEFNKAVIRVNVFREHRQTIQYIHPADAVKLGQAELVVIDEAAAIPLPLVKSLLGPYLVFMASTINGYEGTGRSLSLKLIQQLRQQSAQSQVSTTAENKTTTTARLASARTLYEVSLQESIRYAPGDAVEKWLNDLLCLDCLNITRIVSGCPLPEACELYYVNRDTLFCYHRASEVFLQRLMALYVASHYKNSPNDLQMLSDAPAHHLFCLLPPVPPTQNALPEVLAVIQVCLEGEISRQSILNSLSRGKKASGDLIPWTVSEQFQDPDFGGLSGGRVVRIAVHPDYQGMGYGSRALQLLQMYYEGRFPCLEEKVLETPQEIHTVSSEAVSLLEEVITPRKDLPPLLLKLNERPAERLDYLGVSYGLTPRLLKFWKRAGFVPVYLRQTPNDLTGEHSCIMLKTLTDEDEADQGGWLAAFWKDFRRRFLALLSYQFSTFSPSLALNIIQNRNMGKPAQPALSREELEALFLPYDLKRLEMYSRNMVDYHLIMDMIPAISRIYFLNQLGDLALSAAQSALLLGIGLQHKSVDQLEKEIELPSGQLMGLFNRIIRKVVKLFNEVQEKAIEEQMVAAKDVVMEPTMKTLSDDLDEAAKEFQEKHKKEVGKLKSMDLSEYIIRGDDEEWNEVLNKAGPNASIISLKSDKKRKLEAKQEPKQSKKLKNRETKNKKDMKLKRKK
Description: co-IP; HA-NAT10 (WT or K-R mutants) co-expressed with MYC-Ub and Flag-UBR5; MG132 (100 nM, 8 h); IP with HA antibody, immunoblotting. (A western blot detects proteins with antibodies after separation by electrophoresis.)

The chains behind the UniProt entries cited, without tags or fusion partners.
UniProt O95071: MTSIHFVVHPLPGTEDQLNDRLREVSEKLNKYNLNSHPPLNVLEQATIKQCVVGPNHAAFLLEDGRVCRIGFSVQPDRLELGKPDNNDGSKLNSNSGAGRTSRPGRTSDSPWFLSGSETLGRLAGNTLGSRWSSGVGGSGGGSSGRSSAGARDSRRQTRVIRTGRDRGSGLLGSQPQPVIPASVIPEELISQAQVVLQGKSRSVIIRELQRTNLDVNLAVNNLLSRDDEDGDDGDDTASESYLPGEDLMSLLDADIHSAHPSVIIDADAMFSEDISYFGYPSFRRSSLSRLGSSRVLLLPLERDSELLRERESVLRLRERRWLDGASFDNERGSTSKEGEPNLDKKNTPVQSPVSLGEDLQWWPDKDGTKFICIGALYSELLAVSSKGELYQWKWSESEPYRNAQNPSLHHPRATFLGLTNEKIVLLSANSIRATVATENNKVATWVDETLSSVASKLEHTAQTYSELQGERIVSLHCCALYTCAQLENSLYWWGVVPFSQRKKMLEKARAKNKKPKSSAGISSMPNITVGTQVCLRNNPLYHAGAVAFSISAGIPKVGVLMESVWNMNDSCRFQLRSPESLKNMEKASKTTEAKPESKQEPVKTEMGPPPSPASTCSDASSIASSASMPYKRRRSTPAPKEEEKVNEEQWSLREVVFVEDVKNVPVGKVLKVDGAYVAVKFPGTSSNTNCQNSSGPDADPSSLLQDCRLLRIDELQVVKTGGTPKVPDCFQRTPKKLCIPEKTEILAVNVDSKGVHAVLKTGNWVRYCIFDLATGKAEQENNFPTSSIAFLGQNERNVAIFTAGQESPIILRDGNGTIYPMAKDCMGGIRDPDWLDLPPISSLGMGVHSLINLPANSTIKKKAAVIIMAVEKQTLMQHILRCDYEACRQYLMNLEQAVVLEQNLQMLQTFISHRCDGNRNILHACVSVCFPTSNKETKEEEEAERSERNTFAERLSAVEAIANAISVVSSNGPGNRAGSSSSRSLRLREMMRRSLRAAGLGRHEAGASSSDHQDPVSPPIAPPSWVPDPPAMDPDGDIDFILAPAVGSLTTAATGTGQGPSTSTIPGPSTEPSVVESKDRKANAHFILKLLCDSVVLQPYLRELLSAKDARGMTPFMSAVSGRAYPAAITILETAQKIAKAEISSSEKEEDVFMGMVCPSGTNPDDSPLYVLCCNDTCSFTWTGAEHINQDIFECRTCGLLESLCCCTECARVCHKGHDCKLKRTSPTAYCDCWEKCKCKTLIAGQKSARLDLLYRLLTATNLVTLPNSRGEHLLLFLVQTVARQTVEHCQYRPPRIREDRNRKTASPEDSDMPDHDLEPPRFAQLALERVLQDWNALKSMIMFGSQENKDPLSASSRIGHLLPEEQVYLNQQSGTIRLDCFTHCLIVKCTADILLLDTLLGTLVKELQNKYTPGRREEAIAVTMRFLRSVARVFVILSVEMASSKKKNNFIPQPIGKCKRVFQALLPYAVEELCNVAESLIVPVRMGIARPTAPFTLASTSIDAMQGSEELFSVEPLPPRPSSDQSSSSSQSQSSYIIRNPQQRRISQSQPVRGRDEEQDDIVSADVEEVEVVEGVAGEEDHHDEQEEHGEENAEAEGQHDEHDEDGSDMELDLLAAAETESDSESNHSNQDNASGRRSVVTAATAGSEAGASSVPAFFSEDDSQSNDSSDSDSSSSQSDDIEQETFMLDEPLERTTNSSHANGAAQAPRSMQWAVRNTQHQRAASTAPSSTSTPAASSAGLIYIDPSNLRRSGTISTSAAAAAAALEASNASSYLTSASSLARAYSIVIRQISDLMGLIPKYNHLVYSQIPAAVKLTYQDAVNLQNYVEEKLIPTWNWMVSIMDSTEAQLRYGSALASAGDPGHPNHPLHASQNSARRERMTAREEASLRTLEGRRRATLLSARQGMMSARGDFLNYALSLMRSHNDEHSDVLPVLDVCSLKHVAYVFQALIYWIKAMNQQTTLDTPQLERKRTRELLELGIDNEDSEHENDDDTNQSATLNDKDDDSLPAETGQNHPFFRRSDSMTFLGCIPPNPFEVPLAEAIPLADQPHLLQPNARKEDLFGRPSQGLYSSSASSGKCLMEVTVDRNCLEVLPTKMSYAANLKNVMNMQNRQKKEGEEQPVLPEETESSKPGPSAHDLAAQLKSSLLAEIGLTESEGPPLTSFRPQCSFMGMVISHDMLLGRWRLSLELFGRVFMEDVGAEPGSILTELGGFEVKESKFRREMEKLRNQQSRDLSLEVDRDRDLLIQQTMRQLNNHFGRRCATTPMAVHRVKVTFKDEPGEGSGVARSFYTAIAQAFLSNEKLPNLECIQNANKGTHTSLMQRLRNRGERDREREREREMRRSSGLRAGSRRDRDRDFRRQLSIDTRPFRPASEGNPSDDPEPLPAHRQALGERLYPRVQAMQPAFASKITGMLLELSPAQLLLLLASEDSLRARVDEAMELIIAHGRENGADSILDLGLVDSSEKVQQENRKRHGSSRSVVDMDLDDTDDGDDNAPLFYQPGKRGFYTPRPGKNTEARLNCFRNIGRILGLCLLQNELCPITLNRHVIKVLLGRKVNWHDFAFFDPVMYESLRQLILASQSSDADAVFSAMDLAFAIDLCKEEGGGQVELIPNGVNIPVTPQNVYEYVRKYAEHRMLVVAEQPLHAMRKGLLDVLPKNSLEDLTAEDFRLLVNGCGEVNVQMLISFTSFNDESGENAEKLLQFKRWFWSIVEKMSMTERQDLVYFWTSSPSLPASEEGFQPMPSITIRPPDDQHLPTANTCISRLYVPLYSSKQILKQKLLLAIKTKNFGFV

The next assay deals with T2, HA-NAT10 K262R (UniProt Q9H0A0).
T2 sequence: T1 sequence with K262R, R520K
Described as above.

Residue numbers refer to the chain shown, from its start. These are yes or no findings as the source states them, for the method shown. Binding seen in cells or lysates may run through a third protein. Some results given as binding are weak or reduced against the parent protein; the word gives no strength. Where a sequence is shown, tags or fusion partners need not be part of it.

For FLAG-UBR5 (from UniProt O95071 1-2799), the binding result in the assay with HA-NAT10 K520R and in the assay with HA-NAT10 K262R was “binds” throughout.

The values above are taken from PMC11792579.
